# In the supplement of paper PMC6411743:
# By UniProt entry, the sequences of proteins in these tests, tags left out. Where a name states a change or a piece, a line headed by the entry shows the natural chain unless it says otherwise.
# UniProt Q00537: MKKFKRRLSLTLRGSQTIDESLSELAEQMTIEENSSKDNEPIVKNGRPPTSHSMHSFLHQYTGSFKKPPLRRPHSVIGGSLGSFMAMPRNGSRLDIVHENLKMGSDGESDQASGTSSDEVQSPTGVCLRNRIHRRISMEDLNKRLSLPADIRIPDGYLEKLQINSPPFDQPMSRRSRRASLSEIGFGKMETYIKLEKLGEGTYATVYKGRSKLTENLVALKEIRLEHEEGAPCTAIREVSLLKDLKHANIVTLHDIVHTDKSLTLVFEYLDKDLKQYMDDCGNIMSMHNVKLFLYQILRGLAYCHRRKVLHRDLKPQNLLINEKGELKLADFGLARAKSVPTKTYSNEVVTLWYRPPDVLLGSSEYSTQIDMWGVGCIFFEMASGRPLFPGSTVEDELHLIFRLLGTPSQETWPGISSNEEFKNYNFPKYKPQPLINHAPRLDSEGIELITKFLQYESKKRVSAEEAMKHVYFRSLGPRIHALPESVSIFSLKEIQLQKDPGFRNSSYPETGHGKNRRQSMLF
# UniProt P62195, whole entry: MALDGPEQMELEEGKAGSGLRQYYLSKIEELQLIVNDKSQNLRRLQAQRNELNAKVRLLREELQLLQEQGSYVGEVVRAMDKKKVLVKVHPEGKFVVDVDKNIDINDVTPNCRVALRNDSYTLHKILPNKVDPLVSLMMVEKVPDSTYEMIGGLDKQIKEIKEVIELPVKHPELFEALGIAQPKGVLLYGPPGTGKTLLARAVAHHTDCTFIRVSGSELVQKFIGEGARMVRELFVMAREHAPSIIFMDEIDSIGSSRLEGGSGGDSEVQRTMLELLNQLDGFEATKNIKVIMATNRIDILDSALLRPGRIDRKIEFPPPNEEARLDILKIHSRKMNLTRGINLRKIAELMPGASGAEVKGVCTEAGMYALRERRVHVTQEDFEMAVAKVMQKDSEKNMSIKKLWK
# UniProt P78536: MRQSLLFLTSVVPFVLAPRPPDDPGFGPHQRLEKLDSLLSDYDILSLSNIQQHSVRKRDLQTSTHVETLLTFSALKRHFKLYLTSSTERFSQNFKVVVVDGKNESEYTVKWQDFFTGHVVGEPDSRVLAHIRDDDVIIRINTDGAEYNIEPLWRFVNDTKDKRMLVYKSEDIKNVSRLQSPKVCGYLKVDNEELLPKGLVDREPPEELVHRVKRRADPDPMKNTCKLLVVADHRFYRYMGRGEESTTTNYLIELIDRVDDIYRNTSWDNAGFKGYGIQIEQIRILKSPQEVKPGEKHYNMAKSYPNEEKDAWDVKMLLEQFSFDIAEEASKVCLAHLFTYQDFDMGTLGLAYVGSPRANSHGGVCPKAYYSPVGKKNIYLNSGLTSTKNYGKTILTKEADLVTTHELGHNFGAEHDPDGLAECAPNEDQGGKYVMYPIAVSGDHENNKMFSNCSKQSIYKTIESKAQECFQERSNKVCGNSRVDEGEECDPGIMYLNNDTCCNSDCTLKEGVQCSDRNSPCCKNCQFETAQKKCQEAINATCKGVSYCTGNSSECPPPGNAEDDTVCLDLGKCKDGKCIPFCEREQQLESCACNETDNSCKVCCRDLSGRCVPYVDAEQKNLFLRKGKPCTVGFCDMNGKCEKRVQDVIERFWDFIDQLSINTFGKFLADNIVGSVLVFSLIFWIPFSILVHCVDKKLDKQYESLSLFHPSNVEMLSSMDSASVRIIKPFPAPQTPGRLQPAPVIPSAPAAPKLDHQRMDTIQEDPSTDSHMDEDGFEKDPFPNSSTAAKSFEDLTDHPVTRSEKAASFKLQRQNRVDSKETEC
# UniProt P55809: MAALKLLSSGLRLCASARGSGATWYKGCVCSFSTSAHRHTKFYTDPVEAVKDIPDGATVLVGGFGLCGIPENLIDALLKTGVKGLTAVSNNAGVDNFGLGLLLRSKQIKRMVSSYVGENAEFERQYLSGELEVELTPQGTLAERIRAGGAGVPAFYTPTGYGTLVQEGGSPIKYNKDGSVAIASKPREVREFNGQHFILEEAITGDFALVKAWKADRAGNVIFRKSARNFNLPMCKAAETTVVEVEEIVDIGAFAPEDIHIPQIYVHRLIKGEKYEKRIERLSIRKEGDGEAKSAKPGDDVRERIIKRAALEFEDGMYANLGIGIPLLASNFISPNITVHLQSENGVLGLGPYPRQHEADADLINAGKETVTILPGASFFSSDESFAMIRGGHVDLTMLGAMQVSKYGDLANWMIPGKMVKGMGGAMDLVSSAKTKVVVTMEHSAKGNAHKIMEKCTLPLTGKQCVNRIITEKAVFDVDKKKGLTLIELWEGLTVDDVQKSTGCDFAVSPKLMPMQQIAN
# UniProt P61006: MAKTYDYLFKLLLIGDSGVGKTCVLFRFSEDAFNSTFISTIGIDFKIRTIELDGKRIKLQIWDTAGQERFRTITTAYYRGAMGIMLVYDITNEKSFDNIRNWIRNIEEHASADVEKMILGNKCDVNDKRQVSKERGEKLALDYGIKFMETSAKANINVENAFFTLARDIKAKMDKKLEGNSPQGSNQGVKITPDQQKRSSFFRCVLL
# UniProt P60174, whole entry: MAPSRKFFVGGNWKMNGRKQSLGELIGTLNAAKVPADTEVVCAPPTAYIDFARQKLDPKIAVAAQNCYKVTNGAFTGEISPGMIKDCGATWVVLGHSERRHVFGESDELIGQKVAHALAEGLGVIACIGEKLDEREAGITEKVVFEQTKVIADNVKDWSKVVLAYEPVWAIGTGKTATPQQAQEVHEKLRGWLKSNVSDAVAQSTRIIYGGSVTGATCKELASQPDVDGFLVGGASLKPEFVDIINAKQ
# UniProt P63010: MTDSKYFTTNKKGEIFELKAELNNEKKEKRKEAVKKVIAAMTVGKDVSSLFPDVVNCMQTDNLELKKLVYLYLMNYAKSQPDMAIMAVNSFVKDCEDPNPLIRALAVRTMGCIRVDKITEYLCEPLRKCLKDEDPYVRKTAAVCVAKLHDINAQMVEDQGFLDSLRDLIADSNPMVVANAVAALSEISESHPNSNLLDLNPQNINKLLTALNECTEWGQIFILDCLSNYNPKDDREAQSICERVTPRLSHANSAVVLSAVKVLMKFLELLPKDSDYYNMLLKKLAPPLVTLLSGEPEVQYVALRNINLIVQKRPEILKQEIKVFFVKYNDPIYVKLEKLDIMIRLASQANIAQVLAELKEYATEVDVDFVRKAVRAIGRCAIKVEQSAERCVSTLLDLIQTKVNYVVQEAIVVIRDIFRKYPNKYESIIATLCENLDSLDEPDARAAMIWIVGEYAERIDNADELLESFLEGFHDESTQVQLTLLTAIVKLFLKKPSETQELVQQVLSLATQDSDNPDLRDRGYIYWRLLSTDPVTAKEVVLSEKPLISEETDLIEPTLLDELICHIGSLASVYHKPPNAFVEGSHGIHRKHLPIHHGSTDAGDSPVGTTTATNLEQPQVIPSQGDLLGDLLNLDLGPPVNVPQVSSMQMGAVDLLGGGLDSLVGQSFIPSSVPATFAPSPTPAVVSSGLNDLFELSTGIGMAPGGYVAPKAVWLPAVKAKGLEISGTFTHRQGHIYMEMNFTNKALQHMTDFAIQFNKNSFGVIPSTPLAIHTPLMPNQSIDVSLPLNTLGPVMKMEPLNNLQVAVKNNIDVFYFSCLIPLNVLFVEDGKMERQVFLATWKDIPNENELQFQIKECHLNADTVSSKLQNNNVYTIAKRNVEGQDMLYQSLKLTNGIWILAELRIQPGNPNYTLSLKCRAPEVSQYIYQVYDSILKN
# UniProt P57076: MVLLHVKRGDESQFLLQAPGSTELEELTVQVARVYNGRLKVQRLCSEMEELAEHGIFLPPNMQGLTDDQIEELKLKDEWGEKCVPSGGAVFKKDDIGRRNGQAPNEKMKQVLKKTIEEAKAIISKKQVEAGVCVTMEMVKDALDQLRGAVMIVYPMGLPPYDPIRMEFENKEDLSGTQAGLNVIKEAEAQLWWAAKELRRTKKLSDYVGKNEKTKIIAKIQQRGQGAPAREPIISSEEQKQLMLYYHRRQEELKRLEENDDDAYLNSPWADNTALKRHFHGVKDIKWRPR
# UniProt P62330: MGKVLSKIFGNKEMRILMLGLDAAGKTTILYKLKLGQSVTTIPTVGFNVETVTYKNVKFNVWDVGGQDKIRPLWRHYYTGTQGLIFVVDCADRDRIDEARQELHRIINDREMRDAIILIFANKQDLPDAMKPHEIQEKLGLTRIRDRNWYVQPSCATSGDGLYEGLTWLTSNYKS
# UniProt P68036, whole entry: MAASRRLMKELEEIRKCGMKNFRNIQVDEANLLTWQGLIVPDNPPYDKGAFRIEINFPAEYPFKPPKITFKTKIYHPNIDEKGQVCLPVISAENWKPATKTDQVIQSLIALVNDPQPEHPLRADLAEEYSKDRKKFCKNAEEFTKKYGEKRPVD
# UniProt P78344: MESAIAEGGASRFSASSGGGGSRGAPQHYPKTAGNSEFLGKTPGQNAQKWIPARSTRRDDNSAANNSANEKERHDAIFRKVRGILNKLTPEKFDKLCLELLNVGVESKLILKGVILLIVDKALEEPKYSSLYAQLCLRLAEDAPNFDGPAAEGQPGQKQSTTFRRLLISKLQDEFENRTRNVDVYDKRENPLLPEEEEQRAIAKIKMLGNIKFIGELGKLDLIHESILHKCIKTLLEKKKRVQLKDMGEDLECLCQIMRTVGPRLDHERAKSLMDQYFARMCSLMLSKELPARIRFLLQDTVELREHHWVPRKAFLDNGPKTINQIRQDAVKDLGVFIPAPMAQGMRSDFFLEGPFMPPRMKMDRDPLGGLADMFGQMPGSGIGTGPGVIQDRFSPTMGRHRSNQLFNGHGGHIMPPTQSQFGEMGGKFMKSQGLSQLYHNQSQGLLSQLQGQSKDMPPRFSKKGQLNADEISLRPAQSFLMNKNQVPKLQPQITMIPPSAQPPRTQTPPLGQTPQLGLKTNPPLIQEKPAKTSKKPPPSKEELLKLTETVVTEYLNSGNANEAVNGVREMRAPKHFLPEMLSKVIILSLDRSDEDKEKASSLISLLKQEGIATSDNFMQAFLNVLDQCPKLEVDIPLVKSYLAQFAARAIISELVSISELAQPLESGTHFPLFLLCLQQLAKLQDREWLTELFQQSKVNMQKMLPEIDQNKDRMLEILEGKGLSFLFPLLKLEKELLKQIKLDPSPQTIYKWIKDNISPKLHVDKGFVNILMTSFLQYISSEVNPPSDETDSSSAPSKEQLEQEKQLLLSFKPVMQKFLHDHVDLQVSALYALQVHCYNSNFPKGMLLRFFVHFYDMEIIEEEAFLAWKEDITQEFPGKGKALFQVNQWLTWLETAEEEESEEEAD
# UniProt P55072, whole entry, looked up: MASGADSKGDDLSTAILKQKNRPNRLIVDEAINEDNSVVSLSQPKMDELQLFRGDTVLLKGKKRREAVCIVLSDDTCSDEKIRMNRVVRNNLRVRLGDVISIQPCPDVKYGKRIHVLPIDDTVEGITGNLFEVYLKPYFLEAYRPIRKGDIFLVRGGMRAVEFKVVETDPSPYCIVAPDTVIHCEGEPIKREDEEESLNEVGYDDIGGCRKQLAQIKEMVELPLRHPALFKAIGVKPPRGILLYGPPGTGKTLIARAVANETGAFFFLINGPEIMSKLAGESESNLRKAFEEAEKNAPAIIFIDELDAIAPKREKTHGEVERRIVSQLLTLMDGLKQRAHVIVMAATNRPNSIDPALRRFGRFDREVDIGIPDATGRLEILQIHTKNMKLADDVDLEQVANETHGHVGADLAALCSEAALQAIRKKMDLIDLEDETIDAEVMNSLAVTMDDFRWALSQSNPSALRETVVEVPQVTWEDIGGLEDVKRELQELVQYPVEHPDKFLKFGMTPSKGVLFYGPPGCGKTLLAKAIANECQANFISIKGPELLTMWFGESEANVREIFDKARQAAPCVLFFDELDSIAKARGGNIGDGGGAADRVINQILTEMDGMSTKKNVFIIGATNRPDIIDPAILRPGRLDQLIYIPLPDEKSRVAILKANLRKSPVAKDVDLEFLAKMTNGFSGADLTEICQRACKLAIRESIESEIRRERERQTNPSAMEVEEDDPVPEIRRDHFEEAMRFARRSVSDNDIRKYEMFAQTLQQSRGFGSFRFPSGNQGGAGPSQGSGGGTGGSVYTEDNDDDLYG
# ± gives the standard deviation of the averaged measurements. The list shows a part of the results, in another mix than the full data.
# Compound: Nc1ncnc2c1ncn2[C@@H]1O[C@H](COP(=O)(O)OP(=O)(O)OP(=O)(O)O)[C@@H](O)[C@H]1O [adenosine triphosphate]
# Test: NP40-soluble protein abundance relative to vehicle (solubility fold change) (ratio); higher = more soluble protein in presence of ATP
# Summary of the method: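 Data come from three independent experiments in which Dounce-homogenised Jurkat crude lysate was treated at eight concentrations from 0.1 to 10 mM. Treatment ran 10 min at room temperature and then 3 min at 37 °C, after which 0.8% NP40 and benzonase were added for 60 min at 4 °C before ultracentrifugation. The supernatant underwent TMT labelling and LC-MS/MS, and vsn-normalised intensities were expressed as fold change against the detergent-processed vehicle in each replicate.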
Target,NP40-soluble protein abundance (concentration: 1mM),NP40-soluble protein abundance (concentration: 2mM),NP40-soluble protein abundance (concentration: 4mM),NP40-soluble protein abundance (concentration: 6mM),NP40-soluble protein abundance (concentration: 8mM),NP40-soluble protein abundance (concentration: 10mM)
MRPS5 (UniProt P82675),1.042 ± 0.0061,0.933 ± 0.075,0.925 ± 0.062,0.916 ± 0.14,0.906 ± 0.11,0.859 ± 0.098
UniProt Q00537 and related entries,1.18 ± 0.024,1.26 ± 0.066,1.25 ± 0.044,1.29 ± 0.054,1.34 ± 0.16,1.36 ± 0.16
UniProt P62195 and related entries,0.971 ± 0.026,0.912 ± 0.011,0.889 ± 0.01,0.885 ± 0.081,0.929 ± 0.054,0.89 ± 0.054
UniProt P62888,0.957 ± 0.093,0.912 ± 0.11,0.906 ± 0.18,0.863 ± 0.14,0.814 ± 0.17,0.984 ± 0.14
UniProt P78536 and related entries,0.931 ± 0.093,0.906 ± 0.042,0.92 ± 0.019,0.993 ± 0.057,0.891 ± 0.047,0.9124 ± 0.0024
P62158 (UniProt P0DP23),1.17 ± 0.13,1.14 ± 0.049,1.19 ± 0.1,1.25 ± 0.084,1.21 ± 0.033,1.14 ± 0.16
OXCT1 (UniProt P55809),0.98 ± 0.036,0.981 ± 0.043,0.955 ± 0.037,0.978 ± 0.057,0.968 ± 0.051,0.951 ± 0.05
RAB8A (UniProt P61006),0.962 ± 0.043,0.951 ± 0.042,0.884 ± 0.043,0.945 ± 0.081,0.89 ± 0.044,0.905 ± 0.035
UniProt P60174 and related entries,0.969 ± 0.025,0.9459 ± 0.007,0.911 ± 0.015,0.993 ± 0.012,0.893 ± 0.047,0.88 ± 0.039
UniProt P63010 and related entries,1.03 ± 0.058,1.05 ± 0.036,1.02 ± 0.025,1.06 ± 0.049,1.04 ± 0.039,1.07 ± 0.023
UniProt P57076,0.965 ± 0.036,0.977 ± 0.039,0.919 ± 0.05,0.95 ± 0.041,0.946 ± 0.051,0.913 ± 0.047
UniProt P62330,1.02 ± 0.19,1.04 ± 0.16,1.01 ± 0.084,0.909 ± 0.19,1.07 ± 0.11,1.05 ± 0.11
UniProt P68036,0.952 ± 0.15,0.883 ± 0.044,0.856 ± 0.14,0.913 ± 0.037,0.935 ± 0.067,0.777 ± 0.11
UniProt P78344 and related entries,0.967 ± 0.022,1 ± 0.025,1.01 ± 0.044,1.05 ± 0.035,1.06 ± 0.011,1.11 ± 0.013
UniProt P55072,0.979 ± 0.013,0.949 ± 0.016,0.914 ± 0.016,0.931 ± 0.041,0.932 ± 0.033,0.924 ± 0.048

# An excerpt of the results above, as a working copy:
Target,NP40-soluble protein abundance (concentration: 1mM),NP40-soluble protein abundance (concentration: 2mM),NP40-soluble protein abundance (concentration: 4mM),NP40-soluble protein abundance (concentration: 6mM),NP40-soluble protein abundance (concentration: 8mM),NP40-soluble protein abundance (concentration: 10mM)
UniProt P62195 and related entries,0.971 ± 0.026,0.912 ± 0.011,0.889 ± 0.01,0.885 ± 0.081,0.929 ± 0.054,0.89 ± 0.054
UniProt P62888,0.957 ± 0.093,0.912 ± 0.11,0.906 ± 0.18,0.863 ± 0.14,0.814 ± 0.17,0.984 ± 0.14
